From the supplement of paper PMC12889115
This is one part of the list. Values are raw readings; no control value is given beside them.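 First-pass screen: polymyxin B was added at a level that permeabilizes the Salmonella outer membrane while sparing the inner membrane. DMSO wells, with and without polymyxin B, defined maximum growth. Because plates differed from one another, each plate's data were ranked separately and the compounds with the lowest OD600 were carried forward as hits.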

Tested on: Salmonella enterica serovar Typhimurium SL1344
Assay: bacterial growth OD600 after 18 h with compound and polymyxin B; higher = more bacterial growth (less inhibition)
Conditions: 50 µM, Mueller-Hinton broth

In the case of CN(Cc1nc(Cc2cccc(C(F)(F)F)c2)no1)C1CC(C)(C)NC(C)(C)C1, the “bacterial growth OD600” value (polymyxin B 1 µg/mL) is reported as 0.968.

With CC(C)N1CCN(C(=O)CC2(c3cccc(F)c3)CC(=O)N(Cc3cccnc3)C2=O)CC1 (stereo not given) the “bacterial growth OD600” value (polymyxin B 0.75 µg/mL) was 0.758.

For C=C(C)CN(C)C(=O)CC(c1cccc(Cl)c1)c1ccccc1O (stereo not given), the “bacterial growth OD600” value (polymyxin B 1 µg/mL) was 0.021.

With CC(C)Cn1cc(C(=O)NCC2(c3ccccc3)CCCCC2)c(=O)c(C(=O)N2CCCCCC2)c1 the “bacterial growth OD600” value (polymyxin B 0.75 µg/mL) was 0.028.

For COc1cccc(CCC(=O)N2CCC(CCC(=O)NCc3cccnc3)CC2)c1, the “bacterial growth OD600” value (polymyxin B 1 µg/mL) was 0.939.

In the case of CCCS(=O)(=O)N1CCC2(CCCN(Cc3ccc(C(C)C)cc3)C2=O)C1 (stereo not given), the “bacterial growth OD600” value (polymyxin B 1 µg/mL) is reported as 0.593.

For CC1CCCN(Cc2cnc(S(C)(=O)=O)n2Cc2ccccc2F)C1 (stereo not given), the “bacterial growth OD600” value (polymyxin B 1 µg/mL) was 1.18.

With CCN(CC1CCCO1)C(=O)c1csc2nc(-c3ccc(Cl)cc3)cn12 (stereo not given) the “bacterial growth OD600” value (polymyxin B 1 µg/mL) was 1.17.

For CCOC(=O)C1(CC2CCCCO2)CCN(C(=O)COc2ccc(Cl)cc2)CC1 (stereo not given), the “bacterial growth OD600” value (polymyxin B 1 µg/mL) was 1.03.

CCN1CC(CN(C)Cc2nc(-c3ccccn3)no2)CC1=O (stereo not given) was tested, and the “bacterial growth OD600” value (polymyxin B 1 µg/mL) was 0.881.

With COCCC(=O)N1CCCC(CCc2ccccc2)C1 (stereo not given) the “bacterial growth OD600” value (polymyxin B 0.75 µg/mL) was 0.843.

O=C1CCCN1CC(=O)N1CCC(C2CCN(Cc3cccc(F)c3F)CC2)C1 (stereo not given) was tested, and the “bacterial growth OD600” value (polymyxin B 0.75 µg/mL) was 0.846.

COCC(=O)N1CCCC(CCc2c(F)cccc2F)C1 (stereo not given) was tested, and the “bacterial growth OD600” value (polymyxin B 0.75 µg/mL) was 0.789.

In the case of COC(C(=O)NCc1nc(-c2ccccc2NC(=O)CC2CCCC2)oc1C)c1ccccc1 (stereo not given), the “bacterial growth OD600” value (polymyxin B 0.75 µg/mL) is reported as 0.009.

COCCCN1C(=O)CC(CC(=O)N2CCN(C)C(c3ccccc3)C2)(c2ccccc2OC)C1=O (stereo not given) was tested, and the “bacterial growth OD600” value (polymyxin B 0.75 µg/mL) was 0.717.

In the case of COc1ccccc1CC(=O)Nc1cnn(CC(=O)N(C)CC2(c3ccccc3)CC2(C)C)c1 (stereo not given), the “bacterial growth OD600” value (polymyxin B 0.75 µg/mL) is reported as 0.697.

COCCN1CCCC2(CCN(C(=O)Nc3cccc(F)c3)C2)C1=O (stereo not given) was tested, and the “bacterial growth OD600” value (polymyxin B 0.75 µg/mL) was 0.763.

With CC(=O)N1CCCN(C(=O)CC(c2cccc(O)c2)c2cccc(Cl)c2)CC1 (stereo not given) the “bacterial growth OD600” value (polymyxin B 1 µg/mL) was 0.792.

With Cc1ccc2c(c1)CN(CC(=O)NCC1(c3ccccc3)CCOCC1)CC(c1ccsc1)O2 (stereo not given) the “bacterial growth OD600” value (polymyxin B 0.75 µg/mL) was 0.007.

With CCOC(=O)c1csc(CCNC(=O)Cn2cc(NC(=O)CCC(=O)c3ccccc3)cn2)n1 the “bacterial growth OD600” value (polymyxin B 0.75 µg/mL) was 0.812.

In the case of COc1ccc(CC2=NOC(CNC(=O)c3csc(C(C)C)n3)C2)cc1 (stereo not given), the “bacterial growth OD600” value (polymyxin B 0.75 µg/mL) is reported as 0.747.

For COc1ccc(C2c3[nH]c4ccccc4c3CCN2C(=O)Cc2nonc2C)c(F)c1 (stereo not given), the “bacterial growth OD600” value (polymyxin B 0.75 µg/mL) was 0.582.

With CCn1c(-c2ccccc2F)nc2cc(NC(C)=O)cc(C(=O)NCC(C)Oc3cccnc3)c21 (stereo not given) the “bacterial growth OD600” value (polymyxin B 0.75 µg/mL) was 0.921.

O=C(c1coc(COc2cccc(F)c2F)n1)N1CCN(CC2CC2)CC1 was tested, and the “bacterial growth OD600” value (polymyxin B 1 µg/mL) was 0.863.

With COc1cc2c(cc1OC)CN(C1CCCN(Cc3ccc(C#CCCO)cc3)C1)CC2 (stereo not given) the “bacterial growth OD600” value (polymyxin B 1 µg/mL) was 0.96.

In the case of C=CCNC(=O)CCC1(Cc2ccc(OC)cc2F)CCC(=O)N1 (stereo not given), the “bacterial growth OD600” value (polymyxin B 0.75 µg/mL) is reported as 0.886.

For COC(=O)c1ccc(-c2noc(CN3CCC(C(O)c4cccs4)CC3)n2)cc1 (stereo not given), the “bacterial growth OD600” value (polymyxin B 1 µg/mL) was 0.736.

CC#CC(=O)N1CCC(n2nccc2NC(=O)C(C)(C)C)CC1 was tested, and the “bacterial growth OD600” value (polymyxin B 0.75 µg/mL) was 0.838.

For CCN1CCN(C(=O)c2ccc(N3CCC(N(C)Cc4nc5cc(C)c(C)cc5[nH]4)CC3)cc2)CC1, the “bacterial growth OD600” value (polymyxin B 0.75 µg/mL) was 0.83.

For CCOC(=O)N1CCC(NCc2c(C(=O)N3CCCC3)nc3sccn23)CC1, the “bacterial growth OD600” value (polymyxin B 1 µg/mL) was 1.21.
